Patent US10945972B2, “Particulate materials” (Nektar Therapeutics, priority 2002, dated 2021)
Counter-ions that a name gives are not always drawn. Like-named read-outs stand apart in the source and are kept apart here. Some entries share one result that the patent states for a list of compounds.

Experiments:
[1] = Laser diffraction particle size analysis HELOS/RODOS (Example 2); assay type: physicochemical
Experimental: The instrument consisted of laser diffraction sensor HELOS and dry-powder air-dispersion system RODOS (Sympatec GmbH. Germany) with WINDOX OS computer interface. The dispersion process was controlled by means of adjusting pressure of the compressed air flow between 0.5 and 5 bar. […] All measurements were performed in triplicate. The particle shape factor, f, was calculated as f=Sv/Sv*. where Sv is the experimental specific surface area and Sv* is the specific surface area determined using the LD instrument assuming the particle sphericity.

[2] = Laser diffraction HELOS/RODOS of TBS (Example 8); assay type: physicochemical
Experimental: A small amount of TBS powder was analysed using a laser diffraction RODOS/VIBRI dispersing system (HELOS/RODOS, Sympatec GmbH, Clausthal-Zellerfeld, Germany). The instrument consisted of a laser sensor HELOS and a RODOS dry-powder air-dispersion system (Sympatec GmbH, Clausthal-Zellerfeld, Germany). Different measurement ranges of the laser sensor were provided by interchangeable objectives R1 (0.1-35 μm) and R2 (0.25-87.5 μm). The rate of powder dispersion was controlled by adjusting the pressure of the compressed air flow. A pressure of 2 bar was sufficient to achieve deagglomeration of primary particles without attrition.

| SMILES | cumulative PSD within respirable particle size range 0.5<x<10 μm [1] | further results |
| --- | --- | --- |
| OCc1cc(C(O)CNCCCCCCOCCCCc2ccccc2)ccc1O (stereo not shown) [SX Micronised, salmeterol xinafoate, reference compound] | > 98% | – |
| OCc1cc(C(O)CNCCCCCCOCCCCc2ccccc2)ccc1O (stereo not shown) [SX SEDS, salmeterol xinafoate] | > 98% | – |
| CC(C)(C)NCC(O)c1cc(O)cc(O)c1 (stereo not shown) [TBS 1, terbutaline sulfate] | – | particle size, 90% less than [2]: less than 7 μm |
| CC(C)(C)NCC(O)c1cc(O)cc(O)c1 (stereo not shown) [TSB SEDS, terbutaline sulphate] | – | particle size, 90% less than ([2]; listed as TBS2): less than 7 μm |
